Source: PMC10937286
Results are given in words; binding and its absence hold for the method and conditions named. Binding seen in cells or lysates may run through a third protein.

The chains behind the UniProt entries cited, without tags or fusion partners.
UniProt Q86U44: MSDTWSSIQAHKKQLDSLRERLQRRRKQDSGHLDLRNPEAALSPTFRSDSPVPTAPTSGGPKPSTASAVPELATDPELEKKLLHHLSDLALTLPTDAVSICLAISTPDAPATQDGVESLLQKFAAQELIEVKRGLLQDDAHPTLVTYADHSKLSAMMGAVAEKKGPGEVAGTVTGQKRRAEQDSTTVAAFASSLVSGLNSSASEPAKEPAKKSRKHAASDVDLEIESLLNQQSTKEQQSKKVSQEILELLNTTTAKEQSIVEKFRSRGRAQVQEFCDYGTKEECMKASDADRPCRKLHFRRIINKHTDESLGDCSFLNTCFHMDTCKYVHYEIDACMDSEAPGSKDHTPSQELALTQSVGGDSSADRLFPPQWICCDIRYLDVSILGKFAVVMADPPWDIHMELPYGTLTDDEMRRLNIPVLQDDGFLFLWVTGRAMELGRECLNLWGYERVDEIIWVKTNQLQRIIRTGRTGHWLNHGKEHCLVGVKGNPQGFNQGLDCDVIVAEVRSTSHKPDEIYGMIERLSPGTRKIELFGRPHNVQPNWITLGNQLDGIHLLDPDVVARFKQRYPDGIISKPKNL
UniProt Q14781: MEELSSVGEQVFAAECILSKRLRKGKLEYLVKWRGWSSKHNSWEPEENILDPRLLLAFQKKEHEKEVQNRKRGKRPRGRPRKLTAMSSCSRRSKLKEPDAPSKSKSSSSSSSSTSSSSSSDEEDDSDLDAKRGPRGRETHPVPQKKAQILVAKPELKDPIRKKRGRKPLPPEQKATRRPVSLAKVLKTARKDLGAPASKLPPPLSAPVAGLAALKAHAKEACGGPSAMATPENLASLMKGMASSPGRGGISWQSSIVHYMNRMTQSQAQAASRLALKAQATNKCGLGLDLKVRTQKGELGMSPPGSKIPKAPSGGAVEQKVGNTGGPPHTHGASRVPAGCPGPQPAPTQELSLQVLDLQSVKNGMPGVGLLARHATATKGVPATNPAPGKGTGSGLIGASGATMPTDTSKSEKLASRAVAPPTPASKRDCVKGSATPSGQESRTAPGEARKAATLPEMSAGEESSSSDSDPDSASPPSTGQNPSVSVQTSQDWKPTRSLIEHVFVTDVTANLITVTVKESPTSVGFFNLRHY

Molecular target: Methyltransferase-like 3 (Mettl3) (UniProt Q86U44)
Test: co-IP; 293 T cells transfected with plasmids, lysed in cell lysis buffer, pre-cleared, immunoprecipitated with anti-FLAG or anti-Ha magnetic beads; IP product analysed by WB

## CBX2 (from UniProt Q14781 1-532)
  binding: no binding
